Source: article PMC4844120
No constants are given. Whether binding was seen depends on the method and setting.

Sequences of proteins named here, by UniProt entry; tags and fusion partners are left off. Residues count along the entry.
UniProt Q13231, residues 22-466: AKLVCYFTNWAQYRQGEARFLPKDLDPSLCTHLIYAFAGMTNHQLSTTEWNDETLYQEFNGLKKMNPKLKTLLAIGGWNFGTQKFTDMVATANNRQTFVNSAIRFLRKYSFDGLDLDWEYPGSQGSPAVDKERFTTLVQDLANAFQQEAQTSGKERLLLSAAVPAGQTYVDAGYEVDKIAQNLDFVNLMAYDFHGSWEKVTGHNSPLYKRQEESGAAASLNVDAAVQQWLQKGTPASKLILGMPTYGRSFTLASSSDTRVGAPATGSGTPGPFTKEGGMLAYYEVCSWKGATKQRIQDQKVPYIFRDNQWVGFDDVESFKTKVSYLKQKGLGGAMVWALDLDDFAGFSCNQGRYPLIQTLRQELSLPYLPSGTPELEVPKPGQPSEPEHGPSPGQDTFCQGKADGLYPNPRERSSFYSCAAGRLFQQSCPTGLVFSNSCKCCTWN

Tests used:
[1] = biological target: Human chitotriosidase, full length (CHIT1-FL), 50 kDa secreted isoform (human) (UniProt Q13231); assay: SEC; Superdex 200 HR 16/60 in 10 mM HEPES, 150 mM NaCl pH 7.5; elution peak during purification; both purified
[2] = biological target: Human chitotriosidase, full length (CHIT1-FL), 50 kDa secreted isoform (human) (UniProt Q13231); assay: crystal structure; X-ray, 1.95 Å, space group P2_(1), two CHIT1-FL molecules in the asymmetric unit; both purified
[3] = biological target: Human chitotriosidase, full length (CHIT1-FL), 50 kDa secreted isoform (human) (UniProt Q13231); assay: native MS; ESI-MS (time-of-flight) of native CHIT1-FL, negative-ion mode; desalted in 50 mM ammonium acetate; both purified

Measured: binding

Human chitotriosidase, full length (CHIT1-FL), 50 kDa secreted isoform (from UniProt Q13231 22-466) (enzyme)
no binding: all assays above
